Laboratory results from PubChem BioAssay AID2417 (National Center for Advancing Translational Sciences (NCATS), 2010).
In all, about 140,000 compounds went through this assay and about 4,300 (3.1%) were called active. Inconclusive means that the source gave no clear call. Such entries were picked first, then a sample of the others.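 How the source made its calls: active means readout at or below -70, meaning at least 70% loss of cells showing the perinucleolar compartment, a nuclear body marking cancer cells; inconclusive means readout between -30 and a set limit; inactive means the rest.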

test: High Content Assay for Compounds that inhibit the Assembly of the Perinucleolar Compartment; details: PC3M PTB-GFP, PNC prevalence imaging, 16 h; at 10 µM; active compounds read low;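 further: plate controls were DMSO wells for no effect and camptothecin positive control wells for full effect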
How it was run: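 Read-out is percentage of cells bearing a perinucleolar compartment, from automated 20x imaging of fixed, Hoechst-stained PC3M PTB-GFP cells. Cells were seeded 4 h, then exposed 16 h to compound (23 nl of library stock) in duplicate plates.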

Row | SMILES | activity change (PNC), negative = inhibition
1 | Cc1cc(C)nc(SCC(=O)Nc2ncc(C(F)(F)F)cc2Cl)n1 | inactive: -25.2%
2 | COc1cc(/C=N/NC(=O)C(C)Nc2n[nH]c(=O)[nH]c2=O)cc(OC)c1O (stereo not drawn) | inconclusive: -31.7%
3 | N/C(=N\OC(=O)c1cccc2ccccc12)c1ccc(Br)cc1 | inconclusive: -36.8%
4 | O=C(CSc1ccccc1)NCCSCc1ccccc1 | inconclusive: -49.7%
5 | CCOC(=O)C1(N(CC)CC)Sc2cc(C)ccc2NC1=O (stereo not drawn) | inactive: -7.89%
6 | CCN(CC)C(=O)C1CCCN(Cc2ccc(F)c(F)c2)C1 (stereo not drawn) | inconclusive: -46.2%
7 | COC(=O)COc1ccc(=O)n(-c2ccccc2)n1 | inconclusive: -34.7%
8 | O=C(CSc1nnc2c(n1)[nH]c1ccccc12)Nc1ccc2c(c1)OCO2 | inconclusive: -43.9%
9 | Cc1ccc(S(=O)(=O)ON=C2CCN(S(=O)(=O)c3ccccc3)CC2)cc1 | inactive: 46.3%
10 | Cc1cc(NC(=O)CCC(=O)N(CCC(C)C)CC(=O)NCC2CCCO2)no1 (stereo not drawn) | inactive: -0.23%
11 | Cc1cccc(Cn2c(C(=O)OC(C)C)cc3c2ccn3C)c1 | inconclusive: -55.3%
12 | CCOC(=O)C1(C)/C(=N/Nc2cccc(Cl)c2)C(=O)C(=O)N1c1ccccc1 (stereo not drawn) | inactive: 21.1%
13 | O=C(CSc1nnc(-c2cnccn2)n1Cc1ccco1)Nc1ccc(Br)cc1 | inactive: 22.3%
14 | Cc1cccc(C(C)C)c1NC(=O)COC(=O)Cc1ccsc1 | inconclusive: -42.4%
15 | C=CCn1c(SCC(=O)c2[nH]c(C)c(C(=O)OCC)c2C)nc2scc(-c3ccc(OC)c(OC)c3)c2c1=O | inconclusive: -35.2%
16 | Cc1cccc(C)c1OCCCCCNCCO | inactive: 13.6%
17 | N/C(=N\OC(=O)C(c1ccccc1)c1ccccc1)c1cccnc1 | inactive: 8.24%
18 | S=c1[nH]nc(-c2ccncc2)n1Cc1ccccc1 | inconclusive: -70.8%
19 | CCCCCCc1ccc(OCC(=O)O)cc1OCC(=O)O | inconclusive: -49.1%
20 | O=C(O)C1CC(=O)N(c2ccc(OCc3ccccc3)cc2)C1 (stereo not drawn) | inconclusive: -38%

Row | SMILES | activity change (PNC), negative = inhibition
21 | Cc1cccc(CSC2=NCCN2C(=O)c2ccc(Br)o2)c1 | inconclusive: -38.8%
22 | O=C(CSc1nnc(CNc2ccc(F)cc2)o1)N1c2ccccc2Sc2ccccc21 | inactive: 65.4%
23 | CCCC(=O)NC(=S)Nc1ccccc1OC | inactive: 4.42%
24 | COc1nc(SC)nc(Cl)c1Cc1ccc(OC(C)C)cc1 | inconclusive: -58.7%
25 | COC(=O)CN(c1ccc(F)cc1)S(=O)(=O)c1ccccc1 | inconclusive: -46%
26 | COc1ccc2nc(Nc3nc(CSc4nc5ccccc5[nH]4)cc(=O)[nH]3)nc(C)c2c1 | inactive: 3.48%
27 | N/C(Cc1ccc(Cl)cc1Cl)=N\OC(=O)Cc1ccc(Cl)cc1 | inconclusive: -35.4%
28 | COc1ccccc1N1CCN(C(=O)CSc2ccccc2)CC1 | inconclusive: -66.7%
29 | CCOC(=O)Nc1cc2c(cc1C(C)=O)OCO2 | inactive: 27.3%
30 | O=C1COc2ccc(C(=O)c3ccccc3C(=O)NCc3ccco3)cc2N1 | inactive: -10.2%
31 | CCN(CC)C(=O)/C(=C\c1ccc(Br)cc1)NC(=O)c1ccccc1OC | inconclusive: -43.2%
32 | CCC1CCCCN1CC(=O)Nc1cc(C)nn1-c1nc(C)cc(C)n1 (stereo not drawn) | inconclusive: -66.2%
33 | COc1ccc(CC(=O)N2CC(C)CC(C)C2)cc1 (stereo not drawn) | inactive: 56.8%
34 | CCn1c(C)c(C(C)=O)c(N2CCN(C(=O)c3ccco3)CC2)nc1=S | inconclusive: -48%
35 | O=C(CSc1nc(-c2ccc(F)cc2)cs1)Nc1ccccn1 | inconclusive: -38.4%
36 | N#Cc1c(C(F)(F)F)cc(-c2cccc(Cl)c2)[nH]c1=O | inconclusive: -37.6%
37 | COc1ccc(Cn2c(=O)[nH]c3cc(C(=O)NCCCN4CCCC4)ccc3c2=O)cc1 | inconclusive: -31%
38 | CCOC(=O)C1CCN(C(=O)Nc2ccc(Cl)cc2)CC1 | inconclusive: -40.8%
39 | Cc1ccc(CNC(=O)c2sc3nc4c(c(C(F)(F)F)c3c2N)CCC4)cc1 | inconclusive: -48.2%
40 | COc1ccc(OCC(=O)N2CCN(C(=O)c3ccccc3)CC2)cc1 | inconclusive: -54.9%

Row | SMILES | activity change (PNC), negative = inhibition
41 | Cc1[nH]nc2c1C(c1ccoc1)C(C#N)=C(N)O2 (stereo not drawn) | inactive: 32.8%
42 | Cc1cc(C)cc(N(C(=O)C2CCCC2)C2C=CS(=O)(=O)C2)c1 (stereo not drawn) | inconclusive: -46.3%
43 | O=C(Cn1ncc2c(=O)oc3ccccc3c21)NCCc1ccsc1 | inconclusive: -41.5%
44 | COc1ccccc1CNC(=O)c1cccc(-c2ccc(C)c3ccccc23)n1 | inconclusive: -70.6%
45 | Cc1ccc(-c2noc(CN(C(=O)Cc3ccccc3)C(C)C)n2)cc1 | active: -81.1%
46 | COc1cc(/C=C(/C#N)c2ccc(F)cc2)ccc1OCc1ccc(C(=O)O)o1 | inconclusive: -59%
47 | CC(C)(C)c1[nH]nc2c1C(C1C=CCCC1)C(C#N)=C(N)O2 (stereo not drawn) | inactive: 10.6%
48 | O=C(C1CCCN(S(=O)(=O)c2ccc(F)cc2)C1)N(Cc1cccs1)C1CC1 (stereo not drawn) | inactive: -4.57%
49 | O=C(Nc1nc(-c2ccccn2)cs1)C1COc2ccccc2O1 (stereo not drawn) | inactive: 1.44%
50 | COc1ccc(OCCSc2nnc(CC(=O)Nc3cccc(Cl)c3Cl)n2C)cc1 | inactive: -1.83%
51 | CCCN1C2=NS(=O)(=O)CCN2c2ccccc21 | inconclusive: -57.7%
52 | CC(C)Cn1cc(C(=O)NCc2cccs2)c2c3ccccc3n(C)c2c1=O | inactive: -5.68%
53 | COc1ccc(NC(=O)C2CCN(c3nc(C)cc(C)n3)CC2)cc1 | inconclusive: -43.2%
54 | CCCCOC(=O)Nc1ccc2c(C)cc(=O)oc2c1 | inconclusive: -38.7%
55 | CCc1nc(N[C@@H](Cc2c[nH]c3ccccc23)C(=O)O)c2oc3ccccc3c2n1 | inactive: 15.8%
56 | Cc1ccc(-c2noc(CCC(=O)NCc3ccc4c(c3)OCO4)n2)cc1 | inconclusive: -52.6%
57 | Cc1ccc(C23CC4CC(CC(C(=O)OCC(=O)NC5CCS(=O)(=O)C5)(C4)C2)C3)cc1 (stereo not drawn) | inactive: 16.5%
58 | O=C1COc2ccc(C(=O)c3ccccc3C(=O)O)cc2N1 | inactive: 26.3%

Molecules listed so far that contain bromine (4):
Row | SMILES | activity change (PNC), negative = inhibition
3 | N/C(=N\OC(=O)c1cccc2ccccc12)c1ccc(Br)cc1 | inconclusive: -36.8%
13 | O=C(CSc1nnc(-c2cnccn2)n1Cc1ccco1)Nc1ccc(Br)cc1 | inactive: 22.3%
21 | Cc1cccc(CSC2=NCCN2C(=O)c2ccc(Br)o2)c1 | inconclusive: -38.8%
31 | CCN(CC)C(=O)/C(=C\c1ccc(Br)cc1)NC(=O)c1ccccc1OC | inconclusive: -43.2%
